According to paper PMC4871701:
No constants are given. Whether binding was seen depends on the method and setting. Binding can be weak; no strength is given. Sequences can lack the tags named with a protein. For some assays here: In cells and extracts the contact can be indirect.

Sequences of proteins named here, by UniProt entry; tags and fusion partners are left off. A change or cut given only in a name is not applied to a line headed by its entry.
UniProt Q9CAJ0: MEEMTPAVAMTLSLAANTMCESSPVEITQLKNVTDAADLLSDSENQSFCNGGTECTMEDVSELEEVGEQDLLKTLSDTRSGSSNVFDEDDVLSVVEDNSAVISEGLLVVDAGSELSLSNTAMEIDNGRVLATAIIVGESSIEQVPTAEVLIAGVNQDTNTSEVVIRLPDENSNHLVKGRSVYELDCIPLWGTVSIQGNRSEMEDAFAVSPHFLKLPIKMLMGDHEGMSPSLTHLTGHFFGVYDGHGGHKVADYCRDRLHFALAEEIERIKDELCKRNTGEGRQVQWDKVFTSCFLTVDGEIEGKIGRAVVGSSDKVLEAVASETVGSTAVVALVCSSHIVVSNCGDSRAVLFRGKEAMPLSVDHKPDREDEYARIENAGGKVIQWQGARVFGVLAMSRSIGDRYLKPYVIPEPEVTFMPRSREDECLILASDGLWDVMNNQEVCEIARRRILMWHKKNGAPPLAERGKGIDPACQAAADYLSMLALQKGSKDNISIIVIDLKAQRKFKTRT

How the values were obtained:
[1] = target: T1, RopGEF1 (yeast two-hybrid bait fusion) (Arabidopsis thaliana) (UniProt Q93ZY2); test: two-hybrid; yeast PJ69-4A, USER-modified pGBT9 and pGADGH; growth on SD-L-W-H with 3 mM 3-AT for 6 d; ABI1/PYL1 without ABA
T1 sequence: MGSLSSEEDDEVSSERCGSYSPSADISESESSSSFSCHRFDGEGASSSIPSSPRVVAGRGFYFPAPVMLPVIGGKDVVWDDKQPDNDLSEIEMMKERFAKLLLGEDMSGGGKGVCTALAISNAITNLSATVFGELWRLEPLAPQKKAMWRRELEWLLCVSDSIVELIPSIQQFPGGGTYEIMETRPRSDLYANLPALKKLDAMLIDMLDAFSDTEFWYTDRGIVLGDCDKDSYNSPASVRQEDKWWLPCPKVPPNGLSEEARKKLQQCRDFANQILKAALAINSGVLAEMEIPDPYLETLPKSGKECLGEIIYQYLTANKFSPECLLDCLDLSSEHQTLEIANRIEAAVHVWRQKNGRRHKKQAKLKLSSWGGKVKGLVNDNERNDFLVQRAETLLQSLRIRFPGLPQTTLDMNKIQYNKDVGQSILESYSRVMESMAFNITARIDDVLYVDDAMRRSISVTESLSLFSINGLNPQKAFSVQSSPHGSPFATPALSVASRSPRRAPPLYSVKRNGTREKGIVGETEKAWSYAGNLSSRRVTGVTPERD

[2] = target: T2, YFP^C-GEF1 (Arabidopsis thaliana) (UniProt Q93ZY2); test: split reporter; BiFC with YFP^N and YFP^C fusions in N. benthamiana leaves, confocal imaging; fluorescence quantified relative to ROP11-GEF1
T2 sequence: T1 sequence

binding [1] | binding [2] | Substance
binds weakly | – | HAB1 (yeast two-hybrid fusion) (from UniProt Q9CAJ0) (enzyme)
– | binds weakly | YFP^N-HAB1 (from UniProt Q9CAJ0) (enzyme)
